The target of the assay is T1, Myc-tagged mouse cyclin G1 (mouse) (UniProt P51945).
T1 sequence: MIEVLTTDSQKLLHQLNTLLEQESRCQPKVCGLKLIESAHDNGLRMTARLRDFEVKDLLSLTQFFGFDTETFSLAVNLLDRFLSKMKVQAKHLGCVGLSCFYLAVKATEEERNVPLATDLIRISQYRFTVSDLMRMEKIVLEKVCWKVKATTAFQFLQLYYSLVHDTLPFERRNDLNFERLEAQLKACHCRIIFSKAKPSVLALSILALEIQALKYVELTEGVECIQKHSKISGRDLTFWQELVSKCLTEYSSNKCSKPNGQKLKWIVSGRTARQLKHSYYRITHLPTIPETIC
Put plainly: co-IP; HEK293T transfected with Myc-CG1, lysed in M-PER 48 h later; anti-Myc (9E10) antibody on 200 ug whole-cell lysate overnight at 4 C, Protein A/G agarose; washed 3 times with PBS, then PBS with 500 mM NaCl; Western blot for Myc-CG1 and CDK5. On the technique in general: In western blotting, separated proteins are transferred to a membrane and probed.

Binding data for one substance are collected here from paper PMC9711881.

These are yes or no findings as the source states them, for the method shown. Binding seen in cells or lysates may run through a third protein. Some entries that bind do so weakly or less than the wild type. Sequences can lack the tags named with a protein.

As to “cyclin-dependent kinase 5 (from UniProt Q00535 1-292)”, the binding entry is “binds”.
